Reference: the supplement of paper PMC10849652
The other results are listed elsewhere or left out.

Amino acid sequences for entries named in this document (tags omitted). A change or cut given only in a name is not applied to a line headed by its entry.
UniProt P61604, whole entry, looked up: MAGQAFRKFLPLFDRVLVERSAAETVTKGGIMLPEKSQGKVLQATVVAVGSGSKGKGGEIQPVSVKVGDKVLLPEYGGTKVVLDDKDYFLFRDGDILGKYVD
UniProt Q9NZL4: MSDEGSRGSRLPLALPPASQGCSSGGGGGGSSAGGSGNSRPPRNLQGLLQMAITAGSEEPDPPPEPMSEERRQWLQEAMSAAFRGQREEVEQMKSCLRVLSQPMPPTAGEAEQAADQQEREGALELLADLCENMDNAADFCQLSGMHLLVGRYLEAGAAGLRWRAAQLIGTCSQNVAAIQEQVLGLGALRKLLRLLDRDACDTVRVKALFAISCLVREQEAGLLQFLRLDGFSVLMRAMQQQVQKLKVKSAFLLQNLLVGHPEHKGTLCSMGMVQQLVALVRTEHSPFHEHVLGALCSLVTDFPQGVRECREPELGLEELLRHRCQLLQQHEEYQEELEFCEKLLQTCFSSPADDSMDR
UniProt Q14103: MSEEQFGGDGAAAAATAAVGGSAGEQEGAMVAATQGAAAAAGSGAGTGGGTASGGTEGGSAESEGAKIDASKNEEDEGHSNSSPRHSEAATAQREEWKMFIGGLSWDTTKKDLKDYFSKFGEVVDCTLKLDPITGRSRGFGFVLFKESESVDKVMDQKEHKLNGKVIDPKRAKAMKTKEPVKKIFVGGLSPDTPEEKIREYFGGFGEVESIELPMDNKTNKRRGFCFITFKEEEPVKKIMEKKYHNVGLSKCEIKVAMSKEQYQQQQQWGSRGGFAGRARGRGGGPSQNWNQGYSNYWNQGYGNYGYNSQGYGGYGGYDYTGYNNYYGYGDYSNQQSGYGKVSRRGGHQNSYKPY
UniProt Q00839, whole entry, looked up: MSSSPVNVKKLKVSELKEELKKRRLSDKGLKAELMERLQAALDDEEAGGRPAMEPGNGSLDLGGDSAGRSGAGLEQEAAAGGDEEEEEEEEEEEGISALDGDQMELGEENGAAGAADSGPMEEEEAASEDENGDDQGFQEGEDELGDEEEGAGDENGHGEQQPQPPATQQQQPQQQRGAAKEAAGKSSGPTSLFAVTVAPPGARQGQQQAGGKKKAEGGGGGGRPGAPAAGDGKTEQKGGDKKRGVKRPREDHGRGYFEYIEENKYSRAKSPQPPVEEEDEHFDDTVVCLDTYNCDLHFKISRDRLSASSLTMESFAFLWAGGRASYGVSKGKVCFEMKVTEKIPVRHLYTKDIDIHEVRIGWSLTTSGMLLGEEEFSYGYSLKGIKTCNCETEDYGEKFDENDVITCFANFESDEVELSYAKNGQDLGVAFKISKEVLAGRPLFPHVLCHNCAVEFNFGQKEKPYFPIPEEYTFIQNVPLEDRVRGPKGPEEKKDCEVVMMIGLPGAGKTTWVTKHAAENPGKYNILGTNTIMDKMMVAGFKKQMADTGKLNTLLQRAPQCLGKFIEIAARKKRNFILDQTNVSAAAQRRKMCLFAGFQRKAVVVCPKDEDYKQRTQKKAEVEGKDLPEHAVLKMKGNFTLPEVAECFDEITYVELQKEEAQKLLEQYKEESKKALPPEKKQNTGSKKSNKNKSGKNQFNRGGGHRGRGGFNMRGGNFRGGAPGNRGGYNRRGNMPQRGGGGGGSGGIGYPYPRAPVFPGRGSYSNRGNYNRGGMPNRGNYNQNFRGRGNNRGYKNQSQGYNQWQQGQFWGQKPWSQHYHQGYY
UniProt O43464: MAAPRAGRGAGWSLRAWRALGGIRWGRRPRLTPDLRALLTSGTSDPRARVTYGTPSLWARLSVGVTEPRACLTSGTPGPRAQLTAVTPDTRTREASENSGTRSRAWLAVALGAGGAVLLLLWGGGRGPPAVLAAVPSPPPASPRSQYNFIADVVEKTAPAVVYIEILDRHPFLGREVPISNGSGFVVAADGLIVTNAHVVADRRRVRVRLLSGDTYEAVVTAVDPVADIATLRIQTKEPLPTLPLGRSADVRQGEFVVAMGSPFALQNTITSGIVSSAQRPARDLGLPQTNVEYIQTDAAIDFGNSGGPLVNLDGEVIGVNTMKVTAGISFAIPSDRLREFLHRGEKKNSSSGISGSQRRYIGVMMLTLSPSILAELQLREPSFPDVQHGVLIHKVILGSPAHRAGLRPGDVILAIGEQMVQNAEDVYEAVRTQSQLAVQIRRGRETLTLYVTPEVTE
UniProt Q8TCT9: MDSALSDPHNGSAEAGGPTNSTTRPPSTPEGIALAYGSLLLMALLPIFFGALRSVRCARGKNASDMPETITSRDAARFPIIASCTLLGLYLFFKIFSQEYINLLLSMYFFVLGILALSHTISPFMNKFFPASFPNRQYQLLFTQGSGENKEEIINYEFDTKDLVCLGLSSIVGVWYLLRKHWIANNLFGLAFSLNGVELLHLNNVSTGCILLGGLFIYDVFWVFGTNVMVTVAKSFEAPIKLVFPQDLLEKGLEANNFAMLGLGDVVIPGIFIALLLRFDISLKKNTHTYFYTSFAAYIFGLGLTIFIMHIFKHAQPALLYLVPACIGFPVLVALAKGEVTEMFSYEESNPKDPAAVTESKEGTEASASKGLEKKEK
UniProt P0DMV8, whole entry, looked up: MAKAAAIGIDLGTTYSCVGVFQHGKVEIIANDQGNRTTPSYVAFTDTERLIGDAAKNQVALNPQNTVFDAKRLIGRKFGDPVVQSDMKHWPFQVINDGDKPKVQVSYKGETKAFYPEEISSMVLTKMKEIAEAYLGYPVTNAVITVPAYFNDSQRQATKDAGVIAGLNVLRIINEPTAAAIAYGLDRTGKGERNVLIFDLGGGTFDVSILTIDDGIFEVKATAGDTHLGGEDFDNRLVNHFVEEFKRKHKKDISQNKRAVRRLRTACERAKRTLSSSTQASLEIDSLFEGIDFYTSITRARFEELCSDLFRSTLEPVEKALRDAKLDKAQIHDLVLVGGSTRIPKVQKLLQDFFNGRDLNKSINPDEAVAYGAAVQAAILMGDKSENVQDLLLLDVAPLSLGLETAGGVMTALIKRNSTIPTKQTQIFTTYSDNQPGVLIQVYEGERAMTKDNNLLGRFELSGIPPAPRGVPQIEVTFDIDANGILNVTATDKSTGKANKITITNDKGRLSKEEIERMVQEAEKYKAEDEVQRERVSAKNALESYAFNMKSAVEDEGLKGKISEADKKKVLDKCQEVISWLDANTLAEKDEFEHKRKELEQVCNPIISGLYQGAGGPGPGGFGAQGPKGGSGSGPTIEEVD
UniProt Q15651: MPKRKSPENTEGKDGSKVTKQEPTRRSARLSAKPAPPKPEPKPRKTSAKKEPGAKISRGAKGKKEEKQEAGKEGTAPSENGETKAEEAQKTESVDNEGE
UniProt Q9NX55: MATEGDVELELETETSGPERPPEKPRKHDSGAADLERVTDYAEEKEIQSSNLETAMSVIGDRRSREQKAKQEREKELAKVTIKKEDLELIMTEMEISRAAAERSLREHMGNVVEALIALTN
UniProt Q3SXM5: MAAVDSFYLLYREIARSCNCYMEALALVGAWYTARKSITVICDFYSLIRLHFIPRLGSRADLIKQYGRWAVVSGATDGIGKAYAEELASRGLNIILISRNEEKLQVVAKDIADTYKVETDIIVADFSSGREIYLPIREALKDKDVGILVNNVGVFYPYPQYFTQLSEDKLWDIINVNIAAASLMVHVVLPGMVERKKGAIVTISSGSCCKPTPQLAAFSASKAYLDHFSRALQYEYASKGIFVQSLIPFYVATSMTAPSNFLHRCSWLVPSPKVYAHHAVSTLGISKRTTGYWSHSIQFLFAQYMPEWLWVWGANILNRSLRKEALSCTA
UniProt P31942: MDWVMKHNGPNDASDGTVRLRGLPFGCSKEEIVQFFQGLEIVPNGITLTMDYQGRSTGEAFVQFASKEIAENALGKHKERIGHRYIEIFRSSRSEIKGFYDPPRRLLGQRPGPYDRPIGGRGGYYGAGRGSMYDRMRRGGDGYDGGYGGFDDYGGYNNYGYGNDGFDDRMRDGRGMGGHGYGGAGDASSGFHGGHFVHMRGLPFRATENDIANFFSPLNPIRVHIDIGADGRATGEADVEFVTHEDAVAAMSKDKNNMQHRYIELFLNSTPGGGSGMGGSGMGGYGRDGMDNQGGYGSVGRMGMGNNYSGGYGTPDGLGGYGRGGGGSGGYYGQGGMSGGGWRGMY
UniProt P34932: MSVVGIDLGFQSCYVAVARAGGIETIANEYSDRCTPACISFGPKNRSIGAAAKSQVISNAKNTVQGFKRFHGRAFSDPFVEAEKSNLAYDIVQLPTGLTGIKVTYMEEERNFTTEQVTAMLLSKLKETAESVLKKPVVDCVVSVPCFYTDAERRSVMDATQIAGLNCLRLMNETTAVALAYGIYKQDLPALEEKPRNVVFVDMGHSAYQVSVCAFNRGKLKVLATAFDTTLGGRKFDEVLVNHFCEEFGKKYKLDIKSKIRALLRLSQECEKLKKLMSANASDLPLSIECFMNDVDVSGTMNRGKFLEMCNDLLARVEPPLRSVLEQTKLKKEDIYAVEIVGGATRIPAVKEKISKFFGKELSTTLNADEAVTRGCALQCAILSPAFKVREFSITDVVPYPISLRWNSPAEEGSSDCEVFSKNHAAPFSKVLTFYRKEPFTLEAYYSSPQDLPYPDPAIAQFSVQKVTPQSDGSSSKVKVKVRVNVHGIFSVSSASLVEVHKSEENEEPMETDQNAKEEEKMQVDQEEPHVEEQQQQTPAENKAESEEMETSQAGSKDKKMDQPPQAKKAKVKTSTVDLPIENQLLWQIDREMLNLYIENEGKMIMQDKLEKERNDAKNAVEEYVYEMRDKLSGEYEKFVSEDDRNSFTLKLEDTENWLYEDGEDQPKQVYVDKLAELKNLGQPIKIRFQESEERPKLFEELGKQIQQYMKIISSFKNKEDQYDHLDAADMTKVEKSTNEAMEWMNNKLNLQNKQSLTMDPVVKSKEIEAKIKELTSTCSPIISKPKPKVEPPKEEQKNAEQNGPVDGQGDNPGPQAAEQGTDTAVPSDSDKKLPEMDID
UniProt Q9Y4L1: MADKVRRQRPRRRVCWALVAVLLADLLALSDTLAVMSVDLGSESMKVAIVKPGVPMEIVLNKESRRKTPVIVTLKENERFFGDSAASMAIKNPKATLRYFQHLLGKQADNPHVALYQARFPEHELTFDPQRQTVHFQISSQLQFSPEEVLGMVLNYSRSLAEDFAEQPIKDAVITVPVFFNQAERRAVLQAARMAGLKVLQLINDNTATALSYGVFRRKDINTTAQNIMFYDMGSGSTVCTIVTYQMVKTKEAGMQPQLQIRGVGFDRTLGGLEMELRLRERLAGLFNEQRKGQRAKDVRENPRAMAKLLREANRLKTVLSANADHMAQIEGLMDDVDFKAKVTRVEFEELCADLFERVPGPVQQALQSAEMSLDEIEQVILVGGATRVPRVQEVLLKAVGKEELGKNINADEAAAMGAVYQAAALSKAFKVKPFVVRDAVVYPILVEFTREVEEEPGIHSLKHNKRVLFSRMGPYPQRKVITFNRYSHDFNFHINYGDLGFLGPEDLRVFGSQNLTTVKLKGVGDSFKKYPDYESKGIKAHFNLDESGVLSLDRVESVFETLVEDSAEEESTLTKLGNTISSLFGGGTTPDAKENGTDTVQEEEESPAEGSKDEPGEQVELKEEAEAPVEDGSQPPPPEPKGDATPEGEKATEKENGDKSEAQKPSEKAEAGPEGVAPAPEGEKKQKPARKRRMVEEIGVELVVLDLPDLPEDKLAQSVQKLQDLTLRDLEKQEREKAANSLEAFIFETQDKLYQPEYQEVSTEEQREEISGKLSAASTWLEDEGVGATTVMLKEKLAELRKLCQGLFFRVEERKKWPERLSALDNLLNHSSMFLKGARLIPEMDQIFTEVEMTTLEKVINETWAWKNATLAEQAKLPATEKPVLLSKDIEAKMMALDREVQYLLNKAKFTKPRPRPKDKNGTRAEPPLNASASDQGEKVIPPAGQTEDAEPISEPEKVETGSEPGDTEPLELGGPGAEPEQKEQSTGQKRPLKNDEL
UniProt O43390: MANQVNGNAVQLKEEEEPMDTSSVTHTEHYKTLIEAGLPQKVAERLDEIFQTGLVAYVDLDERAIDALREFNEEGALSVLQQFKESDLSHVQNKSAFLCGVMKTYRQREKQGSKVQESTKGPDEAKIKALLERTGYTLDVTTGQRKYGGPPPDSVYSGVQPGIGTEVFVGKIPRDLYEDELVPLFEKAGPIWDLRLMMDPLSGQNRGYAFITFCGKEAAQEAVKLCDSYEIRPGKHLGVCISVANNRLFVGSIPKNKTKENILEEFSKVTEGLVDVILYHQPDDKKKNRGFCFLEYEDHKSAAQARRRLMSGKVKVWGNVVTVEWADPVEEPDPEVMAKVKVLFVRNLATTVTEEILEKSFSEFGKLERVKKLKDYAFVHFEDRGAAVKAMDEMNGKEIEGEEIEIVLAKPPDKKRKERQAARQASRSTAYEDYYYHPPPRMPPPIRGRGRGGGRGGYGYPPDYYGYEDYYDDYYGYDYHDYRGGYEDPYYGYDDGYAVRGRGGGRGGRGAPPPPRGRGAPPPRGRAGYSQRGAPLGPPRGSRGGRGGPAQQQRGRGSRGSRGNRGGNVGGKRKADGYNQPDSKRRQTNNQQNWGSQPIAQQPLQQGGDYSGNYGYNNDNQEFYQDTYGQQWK

What was measured:
Experiment in all cases: log2 fold change, soluble protein after heating vs DMSO (PISA); higher = thermal stabilisation; K562 cells, 10 uM, 30 min; active = over 0.2 and 3.5 SD of the protein, either way, in both replicates (recomputed)
[1] = compound: CC[C@@H]1C(=O)N(C)c2cnc(Nc3ccc(C(=O)NC4CCN(C)CC4)cc3OC)nc2N1C1CCCC1
Procedure, shortened: (§1)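 K562 cells at 2×10^6 cells/mL were given 10 μM compound for 30 min. Aliquots then went through 3 min of heating across 48°C-58°C, were pooled, and were extracted in PBS with 0.5% NP-40 at 4°C, and the supernatant after 21,000xg for 90 min was quantified by TMTpro 16plex LC-MS/MS with channel sums equalised. Thermal stability relative to control samples, from duplicates, is given as log2 fold change.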

volasertib = compound: CC[C@@H]1C(=O)N(C)c2cnc(Nc3ccc(C(=O)N[C@H]4CC[C@H](N5CCN(CC6CC6)CC5)CC4)cc3OC)nc2N1C(C)C [volasertib]
Procedure, shortened: as §1

[2] = compound: CC[C@H](C)N1C=C(C2=C(C=C(C=C21)C3=CN=C(C=C3)N4CCNCC4)C(=O)NCC5=C(C=C(NC5=O)C)C)C
Procedure, shortened: as §1

epoxomicin = compound: CC[C@H](C)[C@@H](C(=O)N[C@@H]([C@@H](C)O)C(=O)N[C@@H](CC(C)C)C(=O)[C@]1(CO1)C)NC(=O)[C@H]([C@@H](C)CC)N(C)C(=O)C [epoxomicin]
Procedure, shortened: as §1

[3] = compound: CCn1c(C(=O)N(C2CC2)C2CC2)cc2c3c(ncn3C)c(Nc3cc(C)n(C)n3)nc21
Procedure, shortened: as §1

[4] = compound: CCn1cc(-c2ccnc3[nH]c(-c4cccc(CN(C)C)c4)cc23)c(-c2ccc(NC(=O)N(C)C)cc2)n1
Procedure, shortened: as §1

[5] = compound: CN(C)CC(=O)Nc1ccc2[nH]c(=O)c3ccccc3c2c1
Procedure, shortened: as §1

rosiglitazone = compound: CN(CCOC1=CC=C(C=C1)C[C@H]2C(=O)NC(=O)S2)C3=CC=CC=N3 (racemic) [rosiglitazone]
Procedure, shortened: as §1

[6] = compound: CN1C2=C(C3=C1C(=O)N(N=C3)CC4=CC(=CC=C4)N)SC(=C2)S(=O)C
Procedure, shortened: as §1

[7] = compound: CN1CCC(CNc2ccc3ncc(-c4cccc(OC(F)(F)F)c4)n3n2)CC1
Procedure, shortened: as §1

saracatinib = compound: CN1CCN(CCOc2cc(OC3CCOCC3)c3c(Nc4c(Cl)ccc5c4OCO5)ncnc3c2)CC1 [saracatinib]
Procedure, shortened: as §1

sotrastaurin = compound: CN1CCN(c2nc(C3=C(c4c[nH]c5ccccc45)C(=O)NC3=O)c3ccccc3n2)CC1 [sotrastaurin]
Procedure, shortened: as §1

alvocidib = compound: CN1CC[C@H](c2c(O)cc(O)c3c(=O)cc(-c4ccccc4Cl)oc23)[C@H](O)C1 [alvocidib]
Procedure, shortened: as §1

Tubastatin A = compound: CN1CCc2c(c3ccccc3n2Cc2ccc(C(=O)NO)cc2)C1 [Tubastatin A]
Procedure, shortened: as §1

[8] = compound: CNC(=O)C1=CC=CC=C1NC2=NC(=NC=C2Cl)NC3=C(C=C(C=C3)N4CCOCC4)OC
Procedure, shortened: as §1

defactinib = compound: CNC(=O)c1ccc(Nc2ncc(C(F)(F)F)c(NCc3nccnc3N(C)S(C)(=O)=O)n2)cc1 [defactinib]
Procedure, shortened: as §1

rucaparib = compound: CNCc1ccc(-c2[nH]c3cc(F)cc4c3c2CCNC4=O)cc1 [rucaparib]
Procedure, shortened: as §1

[9] = compound: CNc1nc(-c2ccc3c(N)n[nH]c3c2)cc(N2C[C@@H](C(=O)NC3CCCCC3)CC[C@H]2C)n1
Procedure, shortened: as §1

encorafenib = compound: COC(=O)N[C@@H](C)CNc1nccc(-c2cn(C(C)C)nc2-c2cc(Cl)cc(NS(C)(=O)=O)c2F)n1 [encorafenib]
Procedure, shortened: as §1

[10] = compound: COC(=O)[C@H](CCSC)NC(=O)C1=C(C=C(C=C1)NC[C@H](CS)N)C2=CC=CC=C2
Procedure, shortened: as §1

Measured: log2 fold change

HLCS (UniProt P50747)
inactive: [1] -0.001 | volasertib -0.216 | [2] 0.016 | epoxomicin 0.039 | [3] 0.012 | [4] 0.004 | [5] 0.066 | rosiglitazone 0.049 | [6] -0.045 | [7] -0.014 | saracatinib 0.039 | sotrastaurin -0.033 | alvocidib -0.068 | Tubastatin A 0.048 | [8] -0.004 | defactinib -0.019 | rucaparib 0.119 | [9] 0.027 | encorafenib 0.028 | [10] 0.012

HSPE1 (UniProt P61604)
inactive: [1] 0.018 | volasertib 0.202 | [2] -0.05 | epoxomicin 0.001 | [3] 0.041 | [4] 0.009 | [5] -0.054 | rosiglitazone -0.019 | [6] -0.007 | [7] 0.063 | saracatinib 0.008 | sotrastaurin 0.019 | alvocidib 0.01 | Tubastatin A -0.042 | [8] 0.023 | defactinib 0.035 | rucaparib -0.028 | [9] -0.022 | encorafenib -0.033 | [10] 0.028

HSPBP1 isoform 3 (UniProt Q9NZL4)
inactive: [1] -0.069 | volasertib -0.169 | [2] 0.03 | epoxomicin 0.033 | [3] 0.024 | [4] -0.015 | [5] 0.025 | rosiglitazone 0.023 | [6] -0.052 | [7] 0.052 | saracatinib 0.001 | sotrastaurin -0.044 | alvocidib -0.036 | Tubastatin A -0.01 | [8] 0.073 | defactinib -0.092 | rucaparib 0.01 | [9] 0.02 | encorafenib 0.038 | [10] -0.042

HNRNPD isoform 4 (UniProt Q14103)
inactive: [1] 0.192 | volasertib 0.154 | [2] -0.061 | epoxomicin -0.192 | [3] 0 | [4] 0.14 | [5] -0.072 | rosiglitazone -0.05 | [6] 0.31 | [7] 0.222 | saracatinib 0.137 | sotrastaurin 0.073 | alvocidib 0.425 | Tubastatin A 0.039 | [8] -0.022 | defactinib 0.017 | rucaparib 0.156 | [9] 0 | encorafenib 0.085 | [10] -0.105

HNRNPU (UniProt Q00839)
inactive: [1] 0.017 | volasertib -0.027 | [2] 0.069 | epoxomicin -0.05 | [3] -0.089 | [4] 0.176 | [5] -0.034 | rosiglitazone -0.097 | [6] 0.19 | [7] -0.11 | saracatinib -0.158 | sotrastaurin -0.038 | alvocidib 0.055 | Tubastatin A 0.21 | [8] -0.097 | defactinib 0.247 | rucaparib 0.156 | [9] 0.078 | encorafenib 0.106 | [10] -0.069

HTRA2 (UniProt O43464)
inactive: [1] 0.007 | volasertib -0.096 | [2] -0.021 | epoxomicin -0.03 | [3] 0.011 | [4] 0.03 | [5] -0.021 | rosiglitazone -0.008 | [6] -0.024 | [7] -0.045 | saracatinib 0.039 | sotrastaurin -0.002 | alvocidib 0.022 | Tubastatin A 0.015 | [8] -0.018 | defactinib -0.027 | rucaparib -0.02 | [9] -0.028 | encorafenib 0 | [10] 0

HM13 isoform 2 (UniProt Q8TCT9)
inactive: [1] 0.043 | volasertib 0.055 | [2] -0.083 | epoxomicin 0.014 | [3] 0.007 | [4] 0.048 | [5] 0.02 | rosiglitazone 0.006 | [6] -0.037 | [7] 0.065 | saracatinib 0.069 | sotrastaurin 0.05 | alvocidib 0.008 | Tubastatin A 0.007 | [8] -0.018 | defactinib -0.002 | rucaparib -0.058 | [9] -0.011 | encorafenib 0 | [10] 0.008

HGS (UniProt O14964)
inactive: [1] -0.08 | volasertib -0.194 | [2] 0.042 | epoxomicin 0.008 | [3] 0.01 | [4] -0.008 | [5] 0.03 | rosiglitazone 0.01 | [6] -0.027 | [7] -0.078 | saracatinib 0.042 | sotrastaurin -0.056 | alvocidib -0.069 | Tubastatin A 0.004 | [8] 0.019 | defactinib -0.016 | rucaparib -0.027 | [9] -0.054 | encorafenib 0.011 | [10] -0.007

HSPA1A (UniProt P0DMV8)
inactive: [1] -0.041 | volasertib 0.115 | [2] -0.014 | epoxomicin -0.002 | [3] 0.012 | [4] 0.013 | [5] -0.038 | rosiglitazone -0.026 | [6] 0.026 | [7] 0.035 | saracatinib 0.049 | sotrastaurin 0.034 | alvocidib 0.015 | Tubastatin A -0.04 | [8] 0.019 | defactinib 0.011 | rucaparib -0.024 | [9] -0.036 | encorafenib -0.022 | [10] 0.041

HMGN3 (UniProt Q15651)
inactive: [1] 0.037 | volasertib 0.077 | [2] -0.085 | epoxomicin 0.005 | [3] 0.059 | [4] -0.006 | [5] -0.014 | rosiglitazone -0.015 | [6] 0.033 | [7] -0.099 | saracatinib -0.178 | sotrastaurin 0.029 | alvocidib 0.081 | Tubastatin A 0.009 | [8] -0.05 | defactinib 0.017 | rucaparib 0.083 | [9] -0.072 | encorafenib -0.042 | [10] 0.08

HYPK (UniProt Q9NX55)
inactive: [1] 0.043 | volasertib 0.073 | [2] -0.019 | epoxomicin -0.011 | [3] 0.055 | [4] -0.029 | [5] 0.01 | rosiglitazone 0.015 | [6] -0.038 | [7] -0.041 | saracatinib -0.028 | sotrastaurin 0.033 | alvocidib -0.08 | Tubastatin A 0.02 | [8] 0.048 | defactinib -0.001 | rucaparib -0.072 | [9] -0.004 | encorafenib -0.031 | [10] -0.019

HSDL1 (UniProt Q3SXM5)
inactive: [1] 0.064 | volasertib 0.106 | [2] -0.032 | epoxomicin -0.019 | [3] 0.006 | [4] -0.037 | [5] 0 | rosiglitazone -0.017 | [6] -0.1 | [7] 0.027 | saracatinib 0.01 | sotrastaurin 0.072 | alvocidib -0.059 | Tubastatin A -0.025 | [8] -0.02 | defactinib -0.013 | rucaparib 0.004 | [9] -0.001 | encorafenib -0.006 | [10] 0.014

HNRNPH3 (UniProt P31942)
inactive: [1] -0.035 | volasertib 0.07 | [2] 0.085 | epoxomicin -0.168 | [3] -0.237 | [4] 0.174 | [5] 0.149 | rosiglitazone -0.258 | [6] 0.455 | [7] 0.124 | saracatinib 0.041 | sotrastaurin -0.015 | alvocidib 0.214 | Tubastatin A 0.157 | [8] -0.04 | defactinib 0.046 | rucaparib 0.367 | [9] 0.015 | encorafenib 0.072 | [10] -0.012

2 entries drawn at random from the list so far:
HSDL1 (UniProt Q3SXM5)
inactive: [1] 0.064 | volasertib 0.106 | [2] -0.032 | epoxomicin -0.019 | [3] 0.006 | [4] -0.037 | [5] 0 | rosiglitazone -0.017 | [6] -0.1 | [7] 0.027 | saracatinib 0.01 | sotrastaurin 0.072 | alvocidib -0.059 | Tubastatin A -0.025 | [8] -0.02 | defactinib -0.013 | rucaparib 0.004 | [9] -0.001 | encorafenib -0.006 | [10] 0.014

HNRNPH3 (UniProt P31942)
inactive: [1] -0.035 | volasertib 0.07 | [2] 0.085 | epoxomicin -0.168 | [3] -0.237 | [4] 0.174 | [5] 0.149 | rosiglitazone -0.258 | [6] 0.455 | [7] 0.124 | saracatinib 0.041 | sotrastaurin -0.015 | alvocidib 0.214 | Tubastatin A 0.157 | [8] -0.04 | defactinib 0.046 | rucaparib 0.367 | [9] 0.015 | encorafenib 0.072 | [10] -0.012

Further records:

HSPA4 (UniProt P34932)
inactive: [1] -0.031 | volasertib -0.022 | [2] 0.032 | epoxomicin 0.035 | [3] 0.024 | [4] -0.035 | [5] -0.019 | rosiglitazone 0.015 | [6] -0.076 | [7] 0.011 | saracatinib 0.021 | sotrastaurin -0.006 | alvocidib -0.046 | Tubastatin A -0.023 | [8] 0.021 | defactinib -0.049 | rucaparib -0.046 | [9] 0.001 | encorafenib 0.018 | [10] 0.013

HYOU1 (UniProt Q9Y4L1)
inactive: [1] 0.002 | volasertib -0.033 | [2] 0.02 | epoxomicin 0.011 | [3] 0.045 | [4] 0.056 | [5] -0.007 | rosiglitazone -0.002 | [6] 0.031 | [7] 0.105 | saracatinib -0.072 | sotrastaurin -0.06 | alvocidib 0.011 | Tubastatin A 0.022 | [8] 0.09 | defactinib 0.044 | rucaparib 0.005 | [9] -0.001 | encorafenib 0.048 | [10] 0.008

HNRNPR isoform 2 (UniProt O43390)
inactive: [1] 0.112 | volasertib 0.079 | [2] 0.011 | epoxomicin -0.2 | [3] 0.019 | [4] 0.216 | [5] -0.07 | rosiglitazone -0.092 | [6] 0.186 | [7] 0.073 | saracatinib -0.012 | sotrastaurin 0.025 | alvocidib 0.106 | Tubastatin A 0.057 | [8] 0.035 | defactinib 0.142 | rucaparib 0.134 | [9] 0.029 | encorafenib 0.028 | [10] -0.002
